Source: paper PMC6207785
Results are given in words; binding and its absence hold for the method and conditions named. In cells and extracts the contact can be indirect. A yes stands for co-enrichment or nearness to the bait. Other partners may have been found.

Protein sequences, listed by entry. Tags and fused reporters are not part of them. Lines headed by an entry give the natural chain unless they say otherwise; changes in a name come on top. Chains listed by the source or under a name are the forms on record and can include a tag or linker.
ROR-γt (endogenous, mouse colonic lamina propria lymphocytes) (mouse (endogenous in cLPLs of C57BL/6 mice)) (P51450, form named): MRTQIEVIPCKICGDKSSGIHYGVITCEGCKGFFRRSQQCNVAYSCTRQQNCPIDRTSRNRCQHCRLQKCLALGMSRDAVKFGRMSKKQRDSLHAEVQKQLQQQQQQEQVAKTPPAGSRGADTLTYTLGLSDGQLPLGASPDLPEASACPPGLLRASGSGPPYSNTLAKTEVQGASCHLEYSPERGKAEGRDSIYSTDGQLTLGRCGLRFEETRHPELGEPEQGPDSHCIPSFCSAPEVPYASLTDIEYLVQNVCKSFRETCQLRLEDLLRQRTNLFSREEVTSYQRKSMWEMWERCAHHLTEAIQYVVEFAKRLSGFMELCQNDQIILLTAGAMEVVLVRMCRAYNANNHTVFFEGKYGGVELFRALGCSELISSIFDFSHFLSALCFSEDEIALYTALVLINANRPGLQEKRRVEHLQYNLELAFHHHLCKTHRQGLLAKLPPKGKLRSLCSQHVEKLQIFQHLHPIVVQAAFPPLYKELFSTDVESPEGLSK
UniProt P70288: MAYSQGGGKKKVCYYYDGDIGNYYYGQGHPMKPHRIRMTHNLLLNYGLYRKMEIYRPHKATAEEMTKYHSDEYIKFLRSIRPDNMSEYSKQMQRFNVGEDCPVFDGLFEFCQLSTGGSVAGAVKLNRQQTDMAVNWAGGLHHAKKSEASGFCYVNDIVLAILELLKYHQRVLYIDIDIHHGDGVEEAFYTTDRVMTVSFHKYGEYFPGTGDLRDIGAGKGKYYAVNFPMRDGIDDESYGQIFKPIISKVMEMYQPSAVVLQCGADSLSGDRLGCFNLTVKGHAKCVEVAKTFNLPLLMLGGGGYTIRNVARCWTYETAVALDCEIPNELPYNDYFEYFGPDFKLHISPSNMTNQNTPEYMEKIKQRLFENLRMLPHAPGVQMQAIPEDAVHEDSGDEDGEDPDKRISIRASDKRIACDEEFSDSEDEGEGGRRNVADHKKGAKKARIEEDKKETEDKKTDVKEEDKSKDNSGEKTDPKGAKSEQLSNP
UniProt P63280: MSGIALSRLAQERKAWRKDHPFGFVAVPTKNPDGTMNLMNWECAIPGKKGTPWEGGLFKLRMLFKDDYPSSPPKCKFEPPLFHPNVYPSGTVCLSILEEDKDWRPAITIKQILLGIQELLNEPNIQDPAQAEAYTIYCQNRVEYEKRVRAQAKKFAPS

Target: ROR-γt (endogenous, mouse colonic lamina propria lymphocytes) (mouse (endogenous in cLPLs of C57BL/6 mice)) (UniProt P51450)
Experiment: affinity purification with mass spectrometry; anti-ROR-γt or control IgG immunoprecipitation from lysate of cLPLs of WT mice; SDS-PAGE, in-gel trypsin digestion, LC-MS/MS (Orbitrap)

Row | binding | Substance
1 | binds | HDAC2 (endogenous, mouse cells) (from UniProt P70288 1-488) (enzyme)
2 | binds | Ubc9 (endogenous, mouse colonic lamina propria lymphocytes) (from UniProt P63280 1-158) (enzyme)
